Experimental data: PubChem BioAssay AID1259306 (Sanger Institute, 2017)
Here is an unselected part of 794 reagents tested. Over the whole deposit, 11 (1.4%) got an active call. 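Calls reflect knock-down alone; synergy scores play no part, so knock-downs synergising with a drug can be called no change.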 Entries without a mark were called inactive. No viability above 1 is reported: the scale is capped. Not all columns of the deposit are shown. No sequences are given here. Not given: the amount of reagent, the time to read-out.

- Purpose: 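Kinase-wide siRNA screen for partners of targeted drugs in colorectal cancer cells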 (primary screen)
- Cell system: human SNU-C5 colorectal cancer cells
- Knock-down reagent: siRNA pool against human genes
- Challenge: DMSO vehicle alone, or one anchor drug: BYL719 at 1 µM, cetuximab at 5 µg/ml or trametinib at 10 nM, given 24 h into the assay
- Detection: 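Viability versus non-targeting pool averaged across replicates, given as fraction and robust z-score, and synergy scores for BYL719, cetuximab or trametinib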
- Reading the numbers: robust z-score, knock-down alone and viability, knock-down alone: higher = more viable cells
- Hit rule: 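Essential if knock-down without drug gives a robust z-score under -3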
- Calls: active = essential (knock-down alone); inactive = no change alone

| Target gene | PubChem SID | robust z-score, knock-down alone | viability, knock-down alone |
| --- | --- | --- | --- |
| PRKCQ | SID56478674 | 0.0711 | 0.874 |
| PKLR | SID152148534 | -0.92 | 0.737 |
| NTRK2 | SID152152425 | -0.568 | 0.786 |
| NEK9 | SID56478903 | 0.67 | 0.956 |
| PIK3CB | SID56478474 | -0.578 | 0.784 |
| FCSK | SID152149608 | 0.656 | 0.954 |
| MST1R | SID152152898 | 0.989 | 1 |
| MAPK6 | SID56478707 | -0.0103 | 0.862 |
| HK3 | SID56479104 | 0.989 | 1 |
| MAP2K2 | SID56478689 | 0.989 | 1 |
| ACVR2A | SID152150723 | 0.989 | 1 |
| DLG2 | SID152155470 | 0.989 | 1 |
| CKM | SID56479085 | 0.989 | 1 |
| DAPK1 | SID135620826 | -0.388 | 0.81 |
| SRP72 | SID135623816 | -0.519 | 0.792 |
| PRKCB | SID56478724 | 0.829 | 0.978 |
| BRSK1 | SID135620852 | 0.788 | 0.972 |
| STKLD1 | SID152151495 | 0.0986 | 0.877 |
| PAK2 | SID135620709 | -0.337 | 0.817 |
| CIT | SID56478810 | -0.244 | 0.83 |
| PKDCC | SID152147854 | -0.19 | 0.838 |
| EPHB1 | SID152152600 | -0.224 | 0.833 |
| PHKG1 | SID152147540 | -0.249 | 0.829 |
| MYO3B | SID152152883 | 0.989 | 1 |
| CSNK1G2 | SID152151854 | 0.989 | 1 |
| IDH2 | SID134310230 | 0.208 | 0.892 |
| PLK4 | SID152155543 | -2.32 | 0.544 |
| MAST2 | SID152154248 | 0.4 | 0.919 |
| VRK1 | SID152147475 | -1.62 | 0.64 |
| CDC73 | SID134319235 | -1.49 | 0.658 |
| CDK2 | SID56478596 | 0.354 | 0.913 |
| PAPSS2 | SID152148635 | 0.989 | 1 |

Just “viability, knock-down alone”, for 6 of the entries above:
FCSK [SID152149608]	0.954
MST1R [SID152152898]	1
MAPK6 [SID56478707]	0.862
HK3 [SID56479104]	1
MAP2K2 [SID56478689]	1
ACVR2A [SID152150723]	1

Next results:
| Target gene | PubChem SID | robust z-score, knock-down alone | viability, knock-down alone |
| --- | --- | --- | --- |
| ATR | SID135620635 | -0.157 | 0.842 |
| OXSR1 | SID152151868 | 0.0608 | 0.872 |
| PRKAR2A | SID152153424 | -0.827 | 0.75 |
| COASY | SID56479117 | -3.59 (active) | 0.369 |
| MAP3K14 | SID135620705 | 0.723 | 0.963 |
| PDPK1 | SID135620604 | -0.331 | 0.818 |
| ILK | SID152151227 | 0.04 | 0.869 |
| ILK | SID152153406 | 0.0571 | 0.872 |
| IP6K2 | SID56479106 | -0.00614 | 0.863 |
| CAMK2A | SID56478931 | -0.346 | 0.816 |
| PI4K2A | SID135621249 | -0.0689 | 0.854 |
| KALRN | SID134314670 | 0.989 | 1 |
| MAP3K10 | SID56478692 | 0.989 | 1 |
| IP6K3 | SID135621241 | -2.1 | 0.574 |
| TRIB2 | SID56479059 | -0.19 | 0.838 |
| CDK13 | SID152148828 | 0.989 | 1 |
| PMVK | SID135621255 | -1.57 | 0.647 |
| CAMKK2 | SID135620895 | -0.871 | 0.744 |
